# Source: PubChem BioAssay AID493014 (National Center for Advancing Translational Sciences (NCATS), 2011)
# About 170 (0.05%) of roughly 340,000 compounds were called active. The inconclusive results got no clear call from the source; some entries with a clear call stand among them for comparison. The call rests on the fitted dose curve; in most records, active means well fitted inhibition curve with a large enough effect in the signal ratio, with a control signal flat (not every such curve was filed as active); inconclusive means small, poorly fitted or top-dose-only effect, or effect the other way, or a change in a side signal; inactive means flat fitted curve, though single readings scatter; the % refers to the signal ratio. Potencies of inconclusive entries are doubtful fits and often do not repeat.
# Experiment: qHTS Assay to Find Inhibitors of Chronic Active B-Cell Receptor Signaling;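 on activity change, negative = inhibition: plate controls were basal doxycycline-induced cells for no effect and cells given 10 µM MG132 for full effect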
# Details: ABC-DLBCL IkBa-CBG/CBR reporter, luminescence ratio (green luciferase fused to IkBa over red control in TMD8 lymphoma cells), 4 h; activity change, negative = inhibition: at 46.1 µM (top of the series)
# Summary of the method: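 Doxycycline induced both beetle luciferases in TMD8 lymphoma cells; IKK-driven degradation limits the IkappaBalpha-fused green signal, while red luminescence normalises for cell number and nonspecific effects. Compounds tested up to 46 uM, 4 hrs.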
# Potency means the concentration at half of the fitted maximal effect.
Compound,"activity change, negative = inhibition",Potency
O=C(Nc1nnc(-c2ccccc2F)s1)C1CCN(S(=O)(=O)c2ccc(Cl)cc2)CC1,inconclusive: 13.9%,–
Cn1c(C(=O)N2CCCC(C(=O)NCCCc3ccccc3)C2)cc2sccc21 (stereo unspecified),inconclusive: -3.39%,–
COC(=O)c1ccsc1NC(=O)CCc1ccccc1,inconclusive: -10.9%,–
COc1ccc(S(=O)(=O)N(C)c2ccc(C(=O)N3CCOCC3)cc2)cc1,inconclusive: 13.8%,–
COc1cc(-c2noc(C)c2/C=C/c2cccc([N+](=O)[O-])c2)cc(OC)c1OC,–,"inconclusive: 15.8 µM [falling, partial curve, poor fit]"
COc1cc(/C=N/NC(=O)c2ccc3c(c2)OCCO3)cc(Cl)c1O,inconclusive: -3.24%,–
Cc1cccc(NC(=S)NC(=O)/C=C/c2ccco2)c1,–,"inconclusive: 22.4 µM [falling, single point]"
CC(=O)Nc1ccc(-c2csc(N/N=C\c3ccncc3)n2)cc1,inconclusive: -6.82%,–
CC(C)(C)c1ccc(OCC(=O)Nc2ccncc2)c(Br)c1,inactive: -16.4%,–
COc1ccc2cc(CCNC(=O)c3cc4ccccc4o3)c(=O)[nH]c2c1,inactive: -0.189%,–
CCc1cccc2c(C(=O)CN3C(=O)NC4(CCCCCC4)C3=O)c[nH]c12,inconclusive: -0.0715%,–
CC1CCN(Cc2cc(=O)oc3cc(O)c(Cl)cc23)CC1,inconclusive: 7.5%,–
O=C(Nc1ccc(Cl)c(Cl)c1)N1CCC(c2ccccc2)C1 (stereo unspecified),–,"inconclusive: 4.47 µM [falling, partial curve, poor fit]"
CCOCCCn1c(C)nc2c[n+](CC(=O)c3ccc4ccccc4c3)cc(Br)c21,inconclusive: 10.7%,–
Nc1c(-c2ccc(Cl)cc2)cnn1-c1cccc(C(F)(F)F)c1,inconclusive: -8.03%,–
OC1CCCN(Cc2cn(Cc3ccccc3)nc2-c2cc3ccccc3o2)C1 (stereo unspecified),inconclusive: -3.51%,–
Cc1ccc(S(=O)(=O)c2c(N)n(/N=C/c3ccco3)c3nc4ccccc4nc23)cc1C,inconclusive: -1.11%,–
O=C(Nc1ccc([N+](=O)[O-])cn1)c1cc(-c2cccc(Cl)c2)nc2ccccc12,inactive: -1.61%,–
Cc1sc2ncnc(OCC(=O)NC3CCS(=O)(=O)C3)c2c1C (stereo unspecified),–,"inconclusive: 0.631 µM [falling, full curve, poor fit]"
N/C(=N\c1nc2c(c(=O)[nH]1)CCCC2)Nc1ccccc1Sc1ccccc1,inconclusive: -8.74%,–
CC(C)c1nc(N2CCOCC2)c(C#N)c2c1CCCC2,inconclusive: 17.4%,–

# Nothing new here: 5 of the compounds above.
Compound,"activity change, negative = inhibition",Potency
COc1ccc2cc(CCNC(=O)c3cc4ccccc4o3)c(=O)[nH]c2c1,inactive: -0.189%,–
CCc1cccc2c(C(=O)CN3C(=O)NC4(CCCCCC4)C3=O)c[nH]c12,inconclusive: -0.0715%,–
CC1CCN(Cc2cc(=O)oc3cc(O)c(Cl)cc23)CC1,inconclusive: 7.5%,–
O=C(Nc1ccc(Cl)c(Cl)c1)N1CCC(c2ccccc2)C1 (stereo unspecified),–,"inconclusive: 4.47 µM [falling, partial curve, poor fit]"
CCOCCCn1c(C)nc2c[n+](CC(=O)c3ccc4ccccc4c3)cc(Br)c21,inconclusive: 10.7%,–

# (cont.)

Compound,"activity change, negative = inhibition",Potency
COc1cccc(OCCNC(=O)c2cccc(OC)c2)c1,–,"inconclusive: 16.4 µM [falling, partial curve]"
CCc1ccc(-c2ccc(SCC(=O)NCC3CCCO3)nn2)cc1 (stereo unspecified),inactive: -7.36%,–
Cn1c(-c2ccc(Cl)nc2)nc2ccccc21,inactive: 1.94%,–
O=C(NCc1ccccc1)c1cccc(COc2cc(Cl)ccc2Cl)c1,–,"inconclusive: 2.06 µM [rising, full curve, poor fit]"
COc1ccc(NC(=O)[C@@H]2CCCN2S(=O)(=O)c2ccccc2F)cc1S(=O)(=O)N1CCCCC1,inconclusive: -1.88%,–
C=CCC[C@H](Cc1ccc(F)cc1)C(=O)O[C@H](CNC(=O)[C@@H](CC=C)CC(=O)N(CCO)Cc1ccccc1)c1ccccc1,inconclusive: -3.4%,–
CC(C)Cc1csc(NC(=O)C(C)C)c1C(=O)O,inconclusive: 17.4%,–
COc1cccc(C2=Nc3cccc4cccc(c34)N2)c1,inconclusive: 3.45%,–
COc1cc(Cl)c(C)cc1NC(=O)CCCn1c(=O)oc2ccccc21,inconclusive: -4.66%,–
COc1ccc([C@]23Cc4ccccc4C(O2)C2=C(CC4(CCCCC4)OC2=O)O3)cc1,inactive: 28.5% [at 9.22 µM],–
CCOC(=O)C1CCN(C(=O)c2ccc3nc(-c4ccc(OC)cc4)c(-c4ccc(OC)cc4)nc3c2)CC1,inactive: -1.54%,–
COc1ccccc1N1CCN(C(=O)CSc2nc3ncnc(N)c3[nH]2)CC1,inconclusive: 4.29%,–
CCn1cc(C(=O)OC)c(=O)c2cc(S(=O)(=O)N(C)C3CCCCC3)ccc21,inconclusive: 6.14%,–
NNC(=O)C1CC1(c1ccccc1)c1ccccc1 (stereo unspecified),inconclusive: -11.6%,–
C#CCOCCOCCOCCNc1nc(N2CCN(C(=O)[C@H]([C@@H](C)CC)n3cc(CCCN=C(N)N)nn3)CC2)nc(N2CCN(C(=O)[C@H](CCCCN)n3cc(CCC(=O)O)nn3)CC2)n1,inconclusive: 10.5%,–
COc1ccccc1CCNc1ncnc2c1nnn2C,–,"inconclusive: 28.2 µM [falling, single point]"
Oc1ccccc1/C=N/n1c(COc2ccccc2)n[nH]c1=S,inconclusive: 5.17%,–
CN1CCN(CC(=O)Nc2cc(N(C)C)nc3ccccc23)CC1,inconclusive: -10.1%,–
CCCCc1nnc(NC(=O)Cc2ccc(S(=O)(=O)N3CCOCC3)s2)s1,inconclusive: 9.76%,–
Cc1cnc(C(=O)Nc2ccc(C)c(S(=O)(=O)N3CCCCCC3)c2)cn1,inactive: -7.72%,–
COC(=O)c1ccccc1NC(=O)Nc1cc(C(C)(C)C)on1,inconclusive: 6.7%,–

Compound,"activity change, negative = inhibition",Potency
O=C(Nc1ccc(N2CCOCC2)cc1)c1cc2c(s1)CCCC2,inconclusive: 6.12%,–
CCn1ccnc1CN1CCc2c([nH]c3ccccc23)C1C(C)(C)C (stereo unspecified),inconclusive: 0.67%,–
COc1ccc(OC)c2c(C)cc(C)nc12,inconclusive: -4.77%,–
CCN1CCN(c2cc(C)c3cc(NC(=S)N4CC(C)CC(C)C4)ccc3n2)CC1 (stereo unspecified),inconclusive: -23.6%,–
O=C(Nc1ccccc1)c1cccc(=O)o1,–,"inconclusive: 17.8 µM [falling, single point]"
COc1ccc(C2=CC(=O)C[C@H](c3ccc(Cl)cc3)C2)cn1,inactive: 2.81%,–
ON(Cc1c(F)cccc1Cl)Cc1c(F)cccc1Cl,inactive: 0.154%,–
O=C(Oc1ccc(Cl)cc1)c1ccc2nccnc2c1,–,"inconclusive: 6.51 µM [rising, partial curve, poor fit]"
O=C(NCC#CCOCc1ccccc1)c1ccccc1,inconclusive: -0.113%,–
COc1cccc(-c2c(C(=O)N/N=C(\C)c3ccncc3)nnn2-c2nonc2N)c1,inactive: 1.69%,–
CCOC(=O)C1=C(C)NC(SCC(=O)Nc2nc(C)cs2)=C(C#N)C1c1cccs1 (stereo unspecified),inconclusive: 16.3%,–
COc1ccc(N(CC(=O)O)S(=O)(=O)c2ccc(OC)c(OC)c2)cc1,inconclusive: 5.28%,–
CCN1CCN(S(=O)(=O)c2ccc(Cl)c(C(=O)NC(C)(C)C)c2)CC1,inactive: -1.45%,–
CCC[N+]1(CC#CC(O)(c2ccccc2)C2CCCCC2)CCCCC1 (stereo unspecified),–,"inconclusive: 35.5 µM [falling, single point]"
Cc1cccc(/C=N\NC(=O)c2csnn2)c1,–,"inconclusive: 35.5 µM [falling, single point]"
O=C1C2CCCN2C(=O)N1CCCN1CCN(c2cccc(Br)c2)CC1 (stereo unspecified),inactive: 0.401%,–
N#Cc1c(SCC(=O)Nc2ccccc2C(F)(F)F)sc2c(O)cc(=O)[nH]c12,inconclusive: 5.38%,–
CCOc1ccc(C(=O)NC(=S)Nc2ccc(NC(=O)C(C)C)cc2)cc1[N+](=O)[O-],inconclusive: 0.472%,–
CCOC(=O)c1ccc(NC(=O)COC(=O)Cc2csc(-c3ccccc3)n2)cc1,–,"inconclusive: 13 µM [rising, partial curve, poor fit]"
CNC(=O)C(NC(=O)Nc1ccc(C)cc1)C(C)(C)C (stereo unspecified),inconclusive: 4.77%,–
COc1ccc(C2N(c3ccc(F)cc3)C(=O)C3CCCN32)cc1 (stereo unspecified),–,"inconclusive: 16.4 µM [falling, single point]"

Compound,"activity change, negative = inhibition",Potency
CCC(OC(=O)C(NC(=O)c1ccccc1)c1ccccc1)C(=O)Nc1cc(C)on1 (stereo unspecified),inactive: 1.93%,–
CCN1/C(=C2\C(=O)N(C)C(=S)N2C)C=Cc2cc(OC)ccc21,inconclusive: 11.6%,–
CCN1CCN(c2cc(C)c3cc(NC(=O)c4ccc(Br)o4)ccc3n2)CC1,–,"inconclusive: 22.4 µM [falling, single point]"
CC1(c2cccc(Br)c2)NC(=O)N(CC(=O)NC2CCCCC2)C1=O (stereo unspecified),inactive: -3.11%,–
COc1cccc(NC(=O)CSc2nnc(Cc3cccs3)n2-c2ccc(C)cc2)c1,inconclusive: 4.08%,–
COc1cc(/C=N\NC(=O)CNC(=O)C2COc3ccccc3O2)ccc1O (stereo unspecified),inactive: -1.27%,–
Clc1ccccc1OCc1nnc2n1CCCCC2,inconclusive: 0.0182%,–
COc1ccc(C)c2sc(N(Cc3cccnc3)C(=O)CCc3ccccc3)nc12,inactive: -15.1%,–
CN1CCN(c2ccc(CNS(=O)(=O)c3ccc(F)cc3Cl)cc2)CC1,inactive: 7.45%,–
Cc1cccc(N2C(=O)/C(=C/c3cccnc3)SC2=S)c1,inactive: -2.2%,–
COC(=O)Cc1c(C)c2ccc(OCC(=O)N(C)C3CCS(=O)(=O)C3)cc2oc1=O (stereo unspecified),inactive: 2.94%,–
COCCN1CC(=O)N2C(c3cccc(OC)c3)c3[nH]c4ccccc4c3C[C@H]2C1=O (stereo partly specified),inconclusive: -5.98%,–
COc1ccccc1NC(=S)NC(=O)C1CC1,–,"inconclusive: 20.6 µM [falling, partial curve]"
O=C(COc1ccccc1Cl)Nc1ccc(C(=O)O)cc1NC(=O)COc1ccccc1Cl,inconclusive: -19.5%,–
[O-][n+]1onc2c1CCC(=N/O)/C2=N\Nc1ccccc1,–,"inconclusive: 25.1 µM [falling, partial curve]"
CCC1=C(c2cc(OC)c(OC)c(OC)c2)C2(CCCC2)C(=O)O1,inactive: -0.792%,–
COc1ccc(C(=O)N2CCc3cc(OC)c(OC)cc3C2COc2ccccc2OC)cc1 (stereo unspecified),inconclusive: -21.4%,–
COc1ccc(-c2oc3cc(O)c(OC)c(O)c3c(=O)c2OC)cc1,–,"inconclusive: 31.6 µM [falling, single point]"
